Results are given in words; binding and its absence hold for the method and conditions named. Binding seen in cells or lysates may run through a third protein. Some entries that bind do so weakly or less than the wild type.

Chains of the proteins cited; added tags and fusions are not shown.
UniProt Q5NCY0: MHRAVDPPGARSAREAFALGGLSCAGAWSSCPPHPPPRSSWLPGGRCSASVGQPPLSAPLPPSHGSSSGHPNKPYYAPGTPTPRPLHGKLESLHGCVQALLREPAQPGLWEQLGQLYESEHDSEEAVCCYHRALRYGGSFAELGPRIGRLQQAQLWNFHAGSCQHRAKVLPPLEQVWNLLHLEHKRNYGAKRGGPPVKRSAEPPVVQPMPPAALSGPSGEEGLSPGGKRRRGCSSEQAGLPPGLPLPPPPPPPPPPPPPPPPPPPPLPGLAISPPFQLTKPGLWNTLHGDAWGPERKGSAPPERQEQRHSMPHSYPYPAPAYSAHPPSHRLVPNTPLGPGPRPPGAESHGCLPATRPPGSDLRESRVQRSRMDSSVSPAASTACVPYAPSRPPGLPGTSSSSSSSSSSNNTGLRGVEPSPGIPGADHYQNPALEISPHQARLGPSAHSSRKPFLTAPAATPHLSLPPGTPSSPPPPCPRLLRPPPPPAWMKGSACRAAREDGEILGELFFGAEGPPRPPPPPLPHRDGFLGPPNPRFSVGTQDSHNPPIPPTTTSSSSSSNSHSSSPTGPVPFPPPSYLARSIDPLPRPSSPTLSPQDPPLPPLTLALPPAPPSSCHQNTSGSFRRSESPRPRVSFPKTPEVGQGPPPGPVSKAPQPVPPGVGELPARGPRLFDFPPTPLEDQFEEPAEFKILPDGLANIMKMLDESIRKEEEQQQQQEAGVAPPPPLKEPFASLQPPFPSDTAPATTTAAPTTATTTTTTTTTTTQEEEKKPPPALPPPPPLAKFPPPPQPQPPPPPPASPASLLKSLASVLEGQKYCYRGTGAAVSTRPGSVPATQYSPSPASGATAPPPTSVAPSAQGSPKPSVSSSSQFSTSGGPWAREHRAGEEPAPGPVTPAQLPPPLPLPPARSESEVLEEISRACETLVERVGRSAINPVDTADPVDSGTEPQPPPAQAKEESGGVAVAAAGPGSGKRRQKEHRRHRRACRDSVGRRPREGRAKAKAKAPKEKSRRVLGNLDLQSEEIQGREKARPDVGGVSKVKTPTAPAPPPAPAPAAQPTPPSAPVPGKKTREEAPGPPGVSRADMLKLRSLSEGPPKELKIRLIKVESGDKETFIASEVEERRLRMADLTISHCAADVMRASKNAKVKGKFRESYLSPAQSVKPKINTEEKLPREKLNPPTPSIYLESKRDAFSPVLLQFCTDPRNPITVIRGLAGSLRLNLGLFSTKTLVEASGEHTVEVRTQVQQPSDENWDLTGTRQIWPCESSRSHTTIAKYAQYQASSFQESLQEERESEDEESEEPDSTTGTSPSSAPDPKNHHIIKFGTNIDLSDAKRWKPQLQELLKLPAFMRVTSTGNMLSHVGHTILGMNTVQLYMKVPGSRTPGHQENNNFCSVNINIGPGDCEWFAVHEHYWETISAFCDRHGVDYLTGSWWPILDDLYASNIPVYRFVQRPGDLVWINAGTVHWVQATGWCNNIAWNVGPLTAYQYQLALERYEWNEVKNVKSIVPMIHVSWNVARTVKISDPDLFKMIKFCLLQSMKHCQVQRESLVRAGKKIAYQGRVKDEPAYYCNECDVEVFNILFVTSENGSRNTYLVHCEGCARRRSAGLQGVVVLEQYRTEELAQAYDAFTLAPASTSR
UniProt Q8C3P7: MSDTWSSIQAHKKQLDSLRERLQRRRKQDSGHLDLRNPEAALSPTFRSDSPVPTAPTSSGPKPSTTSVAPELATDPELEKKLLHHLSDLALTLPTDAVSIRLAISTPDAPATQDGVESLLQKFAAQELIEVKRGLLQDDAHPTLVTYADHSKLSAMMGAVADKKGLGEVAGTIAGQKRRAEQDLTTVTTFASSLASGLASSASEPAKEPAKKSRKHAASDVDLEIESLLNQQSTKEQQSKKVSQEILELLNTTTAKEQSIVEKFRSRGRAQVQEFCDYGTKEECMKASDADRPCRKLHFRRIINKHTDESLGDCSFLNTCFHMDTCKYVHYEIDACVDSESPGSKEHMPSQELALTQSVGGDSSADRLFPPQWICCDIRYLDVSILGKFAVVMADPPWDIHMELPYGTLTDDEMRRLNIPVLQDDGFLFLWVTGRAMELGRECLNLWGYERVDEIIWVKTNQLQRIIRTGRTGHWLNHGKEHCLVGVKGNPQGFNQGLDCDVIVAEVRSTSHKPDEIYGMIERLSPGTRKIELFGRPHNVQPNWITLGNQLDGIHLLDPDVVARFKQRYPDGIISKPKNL

The assay has as its target lysine demethylase 6B (mouse (endogenous in mESCs)) (UniProt Q5NCY0). Nature of the assay: co-IP; immunoprecipitation of KDM6B from mESC lysate (50 mmol/L Tris-HCl pH 7.5, 150 mmol/L NaCl, 1% NP40), with and without RNase A/T1 treatment; antibody-conjugated Protein G Dynabeads, 4°C overnight; Western blot. In general terms: Immunoblotting shows a protein as a band on a membrane.

On to METTL3 (from UniProt Q8C3P7 1-580), for which the binding result is reported as “no binding”.

B1: METTL14 (protein, UniProt Q3UIK4 1-456)
chain: MDSRLQEIRERQKLRRQLLAQQLGAESADSIGAVLNSKDEQREIAETRETCRASYDTSAPNSKRKCLDEGETDEDKVEEYKDELEMQQEEENLPYEEEIYKDSSTFLKGTQSLNPHNDYCQHFVDTGHRPQNFIRDVGLADRFEEYPKLRELIRLKDELIAKSNTPPMYLQADIEAFDIRELTPKFDVILLEPPLEEYYRETGITANEKCWTWDDIMKLEIDEIAAPRSFIFLWCGSGEGLDLGRVCLRKWGYRRCEDICWIKTNKNNPGKTKTLDPKAVFQRTKEHCLMGIKGTVKRSTDGDFIHANVDIDLIITEEPEIGNIEKPVEIFHIIEHFCLGRRRLHLFGRDSTIRPGWLTVGPTLTNSNYNAETYASYFSAPNSYLTGCTEEIERLRPKSPPPKSKSDRGGGAPRGGGRGGTSAGRGRERNRSNFRGERGGFRGGRGGTHRGGFTPR
Take B1: the binding entry is “binds”.
